# Measurements reported in PubChem BioAssay AID1741 (Vanderbilt High Throughput Screening Facility, 2009).
# Chains of the proteins cited; added tags and fusions are not shown.
# UniProt P08485, whole entry, looked up: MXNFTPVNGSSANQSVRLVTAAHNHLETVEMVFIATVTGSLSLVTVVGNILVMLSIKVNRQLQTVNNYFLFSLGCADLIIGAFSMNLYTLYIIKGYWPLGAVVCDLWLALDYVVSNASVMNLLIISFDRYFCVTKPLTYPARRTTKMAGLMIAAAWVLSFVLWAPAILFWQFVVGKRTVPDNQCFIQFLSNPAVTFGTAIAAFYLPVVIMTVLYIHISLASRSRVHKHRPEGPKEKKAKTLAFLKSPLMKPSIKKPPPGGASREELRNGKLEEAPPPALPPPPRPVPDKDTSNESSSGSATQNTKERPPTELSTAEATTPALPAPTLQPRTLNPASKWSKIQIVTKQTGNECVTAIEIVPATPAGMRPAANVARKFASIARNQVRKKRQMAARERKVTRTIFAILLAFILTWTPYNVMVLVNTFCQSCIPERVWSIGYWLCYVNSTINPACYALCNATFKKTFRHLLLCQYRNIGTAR
# Screen size: about 1,700 compounds; about 150 (8.8%) were called active. Inconclusive results, whose numbers are uncertain, are shown with a selection of clear calls.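 Rule for the calls: active = fluorescence change differing from the plate's solvent-only control wells at 99.7% confidence in both duplicates, whether higher or lower; inconclusive = differs from solvent controls in only one of two duplicates; inactive = the rest.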
# Molecular target: Muscarinic acetylcholine receptor M4 (Rattus norvegicus) (UniProt P08485)
# Assay: rat M4 muscarinic receptor activation – cell-based, agonist mode, counter-screen for M1 allosteric modulator project, confirmation (AID 1741)
# Settings: CHO M4/Gqi5 cells, Fluo-4 calcium fluorescence, at 10 µM, actives lie on both sides
row,Compound,fluorescence change (max-min)
1,COc1cccc2c1OC1(C)CC2NC(=O)N1c1cccc(C(=O)Nc2ccc3c(c2)OCCO3)c1 (stereo unspecified),inconclusive: -100
2,COc1ccc(Cl)cc1CN1CCN(c2nc(C)cc(C)c2C#N)CC1,inactive: 5.9
3,COc1cc(OC)cc(-c2nnc(SCc3c(F)cccc3Cl)o2)c1,inactive: -41.7
4,COc1ccc(CCNC(=O)c2ccco2)cc1,inconclusive: -97.5
5,Cc1nn(C)c(C)c1CN(C)C(=O)c1cnn2c1NC(c1ccccc1)CC2C(F)(F)F (stereo unspecified),inconclusive: -193
6,Cc1ccc(C2C(C#N)=C(N)Oc3c2sc2ccccc32)o1 (stereo unspecified),inactive: 52.8
7,CCCCOc1ccc(-c2nnc(-c3ccncc3)o2)cc1,inconclusive: -73.3
8,COCCCn1c(=NC(=O)c2ccncc2)c(C#N)cc2c(=O)n3cccc(C)c3nc21,active: 363
9,Cc1nnc(SC(C)C(=O)Nc2ccc(S(=O)(=O)N3CCCCCC3)cc2)s1 (stereo unspecified),inconclusive: -60.6
10,Clc1ccc(CCNc2ncnc3nc[nH]c23)cc1,inconclusive: -65.3
11,Nc1nc2n(n1)C(c1ccco1)CC(c1ccc(F)cc1)N2 (stereo unspecified),inconclusive: -59.7
12,CCc1nc(C)cn1S(=O)(=O)c1cc(C)c(OC)cc1C,inconclusive: -74.3
13,CCc1ccc(-c2nc(CSCC(=O)N3CCN(c4ccccn4)CC3)c(C)o2)cc1,inconclusive: -55.1
14,Cc1ccc(S(=O)(=O)c2cc3c(=O)n4ccccc4nc3n(C)c2=N)cc1,inconclusive: -81.9
15,Cc1ccc(-c2nn[nH]n2)o1,inconclusive: -37.2
16,O=C1c2ccccc2-c2onc3ccc(NCc4ccco4)c1c23,active: 1150
17,COc1ccc(C2C3=C(CC(C)(C)CC3=O)Nc3c2c(=O)[nH]c(=O)n3Cc2ccccc2)cc1 (stereo unspecified),inactive: -35.5
18,O=C(NCCC1=CCCCC1)C1CCCN(c2nc3ccccc3o2)C1 (stereo unspecified),inconclusive: -132
19,CC(C)c1nnc(NC(=O)c2ccc(S(=O)(=O)N3CCOCC3)cc2)s1,inconclusive: -62.4
20,CCOc1ccccc1N1CCN(c2nc3ccccc3nc2C(C#N)C(=O)OC)CC1 (stereo unspecified),inactive: -27.7
21,Cc1c(C(=O)OCCOC(C)C)[nH]c2c1C(=O)CC(c1ccco1)C2 (stereo unspecified),active: -80.1
22,COc1ccccc1OCC(=O)c1[nH]c(C)c(C(C)=O)c1C,inactive: -6.84
23,O=C(O)c1ccccc1C1=Nc2ccc(O)cc2Oc2cc(O)ccc21,active: 403

row,Compound,fluorescence change (max-min)
1,c1ccc(-n2nnnc2SCCCSc2nc3ccccc3s2)cc1,inconclusive: -46.5
2,CCC(C)(C)NC(=O)C(c1ccco1)N(C(=O)Cn1nnc2ccccc21)c1ccc2c(c1)OCO2 (stereo unspecified),inconclusive: -123
3,CCCCNC(=O)c1ccc2nc(-c3ccco3)c(-c3ccco3)nc2c1,inconclusive: -47.4
4,O=C(CC1SC(=Nc2ccccc2)N(CCCO)C1=O)Nc1ccc(Cl)cc1 (stereo unspecified),inconclusive: -66.8
5,Cc1ccccc1OCC(O)Cn1c(SC(C)C)nc2c1c(=O)[nH]c(=O)n2C (stereo unspecified),inactive: -27.9
6,Nc1c(C(=O)OCC2CCCO2)c2nc3ccccc3nc2n1-c1ccc2c(c1)OCCO2 (stereo unspecified),inconclusive: -110
7,O=S(=O)(c1ccc(Oc2ncnc3scc(-c4ccccc4)c23)cc1)N1CCOCC1,inconclusive: -61.1
8,CCOC(=O)C1CCCN(C(=O)CCCn2nc(C)n3c(cc4sccc43)c2=O)C1 (stereo unspecified),inconclusive: -37.2
9,c1ccc(-c2nnc(SCc3cn4ccsc4n3)o2)cc1,inactive: -40.4
10,CCOC(=O)CSC1=C(C#N)C(c2ccc(Cl)cc2)CC(=O)N1 (stereo unspecified),inconclusive: -81.1
11,COc1cccc(C(=O)OCn2nnc3ccccc3c2=O)c1,inactive: -21.4
12,CCn1nc(NC(=O)c2cccnc2)c2cc3ccccc3nc21,active: -91.6
13,CCN(CC(=O)Nc1ccc2c(c1)OCCO2)c1nc(-c2cccnc2)nc2ccccc12,inconclusive: -59.2
14,CN(C)CCNc1nc2c(c(=O)[nH]c(=O)n2C)n1CC(O)COc1ccc(Cl)cc1Cl (stereo unspecified),inactive: -24.3
15,c1ccc(N2CCN(c3nnc(Cc4cccnc4)c4ccccc34)CC2)nc1,inconclusive: -57.8
16,O=c1c2ccccc2c(/C=N/n2cnnc2)c(O)n1-c1ccccc1F,active: 698
17,Cc1cc(C)nc(/N=c2/ssnc2Cl)c1,inconclusive: -89.7
18,Cc1ccc(NC(=O)Cc2nn(C)c(=O)c3ccccc23)cc1F,inconclusive: -63.3
19,OC(COc1ccccc1Cl)CN1CCN(CC(O)COc2ccccc2Cl)CC1 (stereo unspecified),inconclusive: -57.8
20,CC(=O)N1CCc2cc(S(=O)(=O)NCCCOC(C)C)ccc21,inconclusive: -47.7
21,CC(C)OCCCNc1ncnc2c1[nH]c1ccccc12,inconclusive: -47.7
22,Cc1ccc(OCCN2CCN(C(=O)CCC(=O)Nc3nnc(C(C)C)s3)CC2)cc1,inactive: 0.755
23,CCOc1ccc(C2C(C#N)=C(N)N3C(=C2C#N)Sc2ccccc23)cc1 (stereo unspecified),inconclusive: 58.8

# Looked up above.
# Entry for `Cc1cc(C)nc(/N=c2/ssnc2Cl)c1` under fluorescence change (max-min): inconclusive: -89.7
# Entry for `CCOc1ccc(C2C(C#N)=C(N)N3C(=C2C#N)Sc2ccccc23)cc1` (stereo unspecified) under fluorescence change (max-min): inconclusive: 58.8
# Entry for `CC(C)OCCCNc1ncnc2c1[nH]c1ccccc12` under fluorescence change (max-min): inconclusive: -47.7
